Measurements taken from PMC5014167.
No constants are given. Whether binding was seen depends on the method and setting. Binding seen in cells or lysates may run through a third protein. For some of these results: Binding can be weak; no strength is given. Where a sequence is shown, tags or fusion partners need not be part of it.

Key:
Test in all cases: co-IP; PES:Flag co-expressed with GFP fusions in N. benthamiana leaves by agroinfiltration; cell extracts immunoprecipitated with anti-GFP antibodies, co-precipitated PES:Flag detected by immunoblot with anti-Flag antibodies
[1] = target: GFP:∆6WD (BOP1 lacking the C-terminal region containing six WD40 domains) (Arabidopsis)
[2] = target: GFP:∆5WD (WDR12 lacking five C-terminal WD40 domains) (Arabidopsis)
[3] = target: GFP:∆NT (BOP1 lacking the N-terminal region including the BOP-NT domain) (Arabidopsis)
[4] = target: GFP:∆NLE (WDR12 lacking the NLE domain) (Arabidopsis)

B1: Flag-fused PES (PES:Flag) (protein, UniProt Q9LYK7 1-590)
chain: MPKHYRPTGKKKEGNAARYMTRSQALKHLQVNLNLFRRLCIVKGIFPREPKKKIKGNHHTYYHVKDIAFLMHEPLLEKFREIKTYQKKVKKAKAKKNEELARLLLTRQPTYKLDRLIRERYPTFIDALRDLDDCLTMVHLFAVLPASDRENLEVKRVHNCRRLTHEWQAYISRSHALRKVFVSVKGIYYQAEIEGQKITWLTPHAIQQVFTNDVDFGVLLTFLEFYETLLAFINFKLYHSLNVKYPPILDSRLEALAADLYALSRYIDASSRGMAVEPKVDASFSSQSNDREESELRLAQLQHQLPSSEPGALMHLVADNNKEVEEDEETRVCKSLFKDLKFFLSREVPRESLQLVITAFGGMVSWEGEGAPFKEDDESITHHIIDKPSAGHLYLSRVYVQPQWIYDCVNARIILPTEKYLVGRIPPPHLSPFVDNEAEGYVPDYAETIKRLQAAARNEVLPLPGVGKEDLEDPQNLLYAGVMSRAEEAEAAKNKKKMAAQEKQYHEELKMEINGSKDVVAPVLAEGEGEESVPDAMQIAQEDADMPKVLMSRKKRKLYDAMKISQSRKRSGVEIIEQRKKRLNDTQPSS
binding [1]: no binding
binding [2]: no binding
binding [3]: binds
binding [4]: binds
